Results from paper PMC7481787.
Results are given in words; binding and its absence hold for the method and conditions named. In cells and extracts the contact can be indirect. Some binding calls cover weakened binding; strength is not graded here.

The chains behind the UniProt entries cited, without tags or fusion partners.
UniProt Q62318: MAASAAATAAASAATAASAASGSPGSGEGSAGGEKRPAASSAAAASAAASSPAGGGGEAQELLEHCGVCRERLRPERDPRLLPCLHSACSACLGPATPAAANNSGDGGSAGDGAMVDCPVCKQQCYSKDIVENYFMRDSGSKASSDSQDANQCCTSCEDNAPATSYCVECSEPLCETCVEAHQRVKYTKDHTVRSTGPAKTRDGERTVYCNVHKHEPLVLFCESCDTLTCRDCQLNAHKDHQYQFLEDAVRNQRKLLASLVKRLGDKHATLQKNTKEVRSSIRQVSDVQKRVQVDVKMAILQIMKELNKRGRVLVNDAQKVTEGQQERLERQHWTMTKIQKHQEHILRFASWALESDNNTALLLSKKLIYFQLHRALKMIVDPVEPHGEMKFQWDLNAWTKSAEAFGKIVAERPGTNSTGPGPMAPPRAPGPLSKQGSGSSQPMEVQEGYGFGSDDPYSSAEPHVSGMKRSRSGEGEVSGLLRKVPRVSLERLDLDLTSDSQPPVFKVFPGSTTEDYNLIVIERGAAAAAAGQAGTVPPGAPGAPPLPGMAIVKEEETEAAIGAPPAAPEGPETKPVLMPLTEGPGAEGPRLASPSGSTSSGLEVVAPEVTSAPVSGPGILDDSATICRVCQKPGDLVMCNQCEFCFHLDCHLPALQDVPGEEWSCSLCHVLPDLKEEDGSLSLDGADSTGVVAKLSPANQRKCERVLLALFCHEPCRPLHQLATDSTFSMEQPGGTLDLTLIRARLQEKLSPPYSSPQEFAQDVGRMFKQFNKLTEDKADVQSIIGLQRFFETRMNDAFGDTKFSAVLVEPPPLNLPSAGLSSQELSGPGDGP
UniProt Q6PDQ2: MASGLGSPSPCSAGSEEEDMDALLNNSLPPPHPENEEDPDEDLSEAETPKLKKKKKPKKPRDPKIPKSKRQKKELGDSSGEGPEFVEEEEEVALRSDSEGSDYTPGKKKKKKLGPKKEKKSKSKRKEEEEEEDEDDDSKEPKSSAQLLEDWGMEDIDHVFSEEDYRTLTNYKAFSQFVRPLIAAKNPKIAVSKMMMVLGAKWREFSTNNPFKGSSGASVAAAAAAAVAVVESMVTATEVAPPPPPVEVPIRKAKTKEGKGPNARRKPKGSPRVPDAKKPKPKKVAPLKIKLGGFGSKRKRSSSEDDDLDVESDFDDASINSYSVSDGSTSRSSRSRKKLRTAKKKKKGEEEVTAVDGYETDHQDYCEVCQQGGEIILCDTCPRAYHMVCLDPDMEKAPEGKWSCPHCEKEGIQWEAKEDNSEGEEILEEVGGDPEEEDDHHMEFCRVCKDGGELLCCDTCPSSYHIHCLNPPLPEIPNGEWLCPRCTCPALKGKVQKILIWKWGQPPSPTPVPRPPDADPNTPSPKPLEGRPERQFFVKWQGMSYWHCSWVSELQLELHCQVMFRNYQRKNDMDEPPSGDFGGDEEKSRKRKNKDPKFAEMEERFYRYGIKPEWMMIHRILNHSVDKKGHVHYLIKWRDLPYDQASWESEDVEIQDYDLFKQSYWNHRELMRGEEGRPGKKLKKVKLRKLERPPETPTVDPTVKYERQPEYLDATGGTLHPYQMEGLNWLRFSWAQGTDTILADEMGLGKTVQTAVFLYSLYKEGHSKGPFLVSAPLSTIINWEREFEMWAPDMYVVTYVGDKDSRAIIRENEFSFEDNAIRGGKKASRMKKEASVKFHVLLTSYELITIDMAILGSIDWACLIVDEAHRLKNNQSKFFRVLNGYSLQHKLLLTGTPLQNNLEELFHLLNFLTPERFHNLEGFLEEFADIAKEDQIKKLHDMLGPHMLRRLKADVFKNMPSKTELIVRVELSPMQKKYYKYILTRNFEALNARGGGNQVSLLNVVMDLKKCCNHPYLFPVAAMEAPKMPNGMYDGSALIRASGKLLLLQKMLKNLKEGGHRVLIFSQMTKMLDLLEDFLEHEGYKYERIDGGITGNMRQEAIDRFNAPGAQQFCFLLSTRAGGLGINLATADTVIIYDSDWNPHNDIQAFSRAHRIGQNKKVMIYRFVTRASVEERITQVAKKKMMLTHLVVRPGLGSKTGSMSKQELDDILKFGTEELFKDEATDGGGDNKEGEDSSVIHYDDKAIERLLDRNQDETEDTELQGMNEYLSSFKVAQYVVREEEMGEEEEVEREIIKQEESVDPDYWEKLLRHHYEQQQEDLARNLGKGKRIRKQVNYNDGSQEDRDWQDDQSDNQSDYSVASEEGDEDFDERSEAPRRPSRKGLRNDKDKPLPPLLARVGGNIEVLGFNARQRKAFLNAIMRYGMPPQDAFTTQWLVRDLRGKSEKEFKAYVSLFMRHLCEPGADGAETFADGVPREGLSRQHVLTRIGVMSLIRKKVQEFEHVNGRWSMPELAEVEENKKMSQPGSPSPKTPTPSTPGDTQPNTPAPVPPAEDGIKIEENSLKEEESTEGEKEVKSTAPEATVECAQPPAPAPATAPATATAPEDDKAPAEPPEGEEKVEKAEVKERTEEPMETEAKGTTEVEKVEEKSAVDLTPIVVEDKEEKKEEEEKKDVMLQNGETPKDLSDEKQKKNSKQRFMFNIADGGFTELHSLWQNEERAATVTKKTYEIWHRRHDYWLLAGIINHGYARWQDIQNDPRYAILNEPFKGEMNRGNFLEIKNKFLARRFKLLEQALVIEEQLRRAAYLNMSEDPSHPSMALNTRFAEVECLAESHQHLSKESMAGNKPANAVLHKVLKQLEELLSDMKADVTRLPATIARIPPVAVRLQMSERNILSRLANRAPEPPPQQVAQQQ
UniProt P70288: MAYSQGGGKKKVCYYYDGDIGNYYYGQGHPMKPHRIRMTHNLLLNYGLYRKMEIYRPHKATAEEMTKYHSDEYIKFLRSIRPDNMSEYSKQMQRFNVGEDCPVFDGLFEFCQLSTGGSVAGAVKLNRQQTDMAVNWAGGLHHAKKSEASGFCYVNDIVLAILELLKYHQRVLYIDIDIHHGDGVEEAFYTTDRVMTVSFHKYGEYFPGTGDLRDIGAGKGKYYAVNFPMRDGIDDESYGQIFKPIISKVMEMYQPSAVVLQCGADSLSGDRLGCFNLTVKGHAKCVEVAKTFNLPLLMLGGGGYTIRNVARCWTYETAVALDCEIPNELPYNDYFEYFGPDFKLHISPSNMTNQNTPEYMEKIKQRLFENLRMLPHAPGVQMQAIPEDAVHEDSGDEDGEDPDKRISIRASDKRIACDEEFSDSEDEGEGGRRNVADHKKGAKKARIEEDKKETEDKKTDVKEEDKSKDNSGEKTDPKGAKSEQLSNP

Tests used:
[1] = target: KAP1 (mouse (endogenous in C2C12)) (UniProt Q62318); experiment: co-IP; C2C12 cells at 90% confluency lysed in CO-IP buffer (50 mM Tris-HCl, 150 mM NaCl, 1% Triton X-100, protease inhibitor); supernatant rotated with antibody and Protein A-agarose beads at 4 °C for 14 h; western blot
[2] = target: CHD4 (mouse (endogenous in C2C12)) (UniProt Q6PDQ2); experiment: as above

Row | binding [1] | binding [2] | Substance
1 | binds |  | CHD4 (from UniProt Q6PDQ2 1-1915)
2 |  | binds | HDAC2 (from UniProt P70288 1-488)
